Results are given in words; binding and its absence hold for the method and conditions named. For part of these data: Binding calls can cover weak binding; strength is not graded here. For part of these data: In cells and extracts the contact can be indirect. For part of these data: Tags and fused reporters may be left off the sequences shown.
Key:
[1] = molecular target: BIR1-CFP (Arabidopsis); assay: FRET or BRET; FRET by acceptor photobleaching, CFP donor and YFP acceptor, transient expression in N. benthamiana leaves; time courses after flg22 (1 μM or 100 nM)
[2] = molecular target: BIR1-CFP (Arabidopsis); assay: condition: only 3 min after addition of flg22 (1 μM); FRET or BRET; FRET by acceptor photobleaching, CFP donor and YFP acceptor, transient expression in N. benthamiana leaves; 3 min after addition of flg22 (1 μM)
[3] = molecular target: BIR1-cYFP (BAK1-interacting receptor-like kinase 1) (Arabidopsis); assay: split reporter; BiFC with nYFP and cYFP halves, transient expression in N. benthamiana leaves, confocal imaging; cells without flg22
[4] = molecular target: BIR1-cYFP (BAK1-interacting receptor-like kinase 1) (Arabidopsis); assay: split reporter; BiFC with nYFP and cYFP halves, transient expression in N. benthamiana leaves, confocal imaging on day 4 to 6 after infiltration; flg22 at various concentrations and times where indicated
[5] = molecular target: BIR1-cYFP (in Arabidopsis mesophyll protoplasts) (Arabidopsis); assay: split reporter; BiFC in Arabidopsis Col-0 mesophyll protoplasts, confocal imaging two days after transformation
[6] = molecular target: BIR1 kinase domain-maltose-binding protein (BIR1 kinase domain, 303-620 aa) (Arabidopsis); assay: pull-down; 10 μg BIR1 kinase domain-MBP on amylose resin, incubated with 2 μg of prey in 50 mM Tris-HCl pH 7.5, 100 mM NaCl, 0.1% Triton X-100 at 4°C for 4 hrs; washed with 200 mM NaCl buffer; immunoblot; both purified

B1: AtRGS1-YFP (protein, UniProt Q8H1F2 1-459)
chain: MASGCALHGGCPSDYVAVAISVICFFVLLSRSVLPCLIHKAPRTNSSSFWIPVIQVISSFNLLFSIMMSVNLLRFRTKHWWRYCYLWAVWIEGPLGFGLLMSCRITQAFQLYFIFVKKRLPPVKSYIFLPLVLLPWIFGAAIIHATKPLNDKCHMGLQWTFPVAGLHALYVLALIAFTRAVRHVEFRFDELRDLWKGILVSATSIVIWVTAFVLNEIHEEISWLQVASRFVLLVTGGILVVVFFSISSNQPLLSQISLKKRQNFEFQRMGQALGIPDSGLLFRKEEFRPVDPNEPLDKLLLNKRFRHSFMEFADSCYAGETLHFFEEVYEHGKIPEDDSIRRIYMARHIMEKFIVAGAEMELNLSHKTRQEILTTQDLTHTDLFKNALNEVMQLIKMNLVRDYWSSIYFIKFKEEESCHEAMHKEGYSFSSPRLSSVQGSDDPFYQEHMSKSSRCSSPG
binding [1]: binds | binding [2]: no binding

B2: AtRGS1-nYFP (Arabidopsis thaliana Regulator of G Signaling 1) (protein, UniProt Q8H1F2 1-459)
chain: B1 chain
binding [3]: no binding (only without flg22) | binding [4]: binds

B3: AtRGS1-nYFP (in Arabidopsis mesophyll protoplasts) (protein, UniProt Q8H1F2 1-459)
chain: B1 chain
binding [5]: binds

B4: AtGPA1 (Arabidopsis thaliana Gα subunit), recombinant (protein, UniProt P18064 1-383)
chain: MGLLCSRSRHHTEDTDENTQAAEIERRIEQEAKAEKHIRKLLLLGAGESGKSTIFKQIKLLFQTGFDEGELKSYVPVIHANVYQTIKLLHDGTKEFAQNETDSAKYMLSSESIAIGEKLSEIGGRLDYPRLTKDIAEGIETLWKDPAIQETCARGNELQVPDCTKYLMENLKRLSDINYIPTKEDVLYARVRTTGVVEIQFSPVGENKKSGEVYRLFDVGGQRNERRKWIHLFEGVTAVIFCAAISEYDQTLFEDEQKNRMMETKELFDWVLKQPCFEKTSFMLFLNKFDIFEKKVLDVPLNVCEWFRDYQPVSSGKQEIEHAYEFVKKKFEELYYQNTAPDRVDRVFKIYRTTALDQKLVKKTFKLVDETLRRRNLLEAGLL
binding [6]: binds
